Results published in PubChem BioAssay AID624297 (National Center for Advancing Translational Sciences (NCATS), 2012).
The whole screen tested about 340,000 compounds, of which about 6,200 (1.8%) were called active. Inconclusive means that the source gave no clear call. Such entries were picked first, then a sample of the others. The call rests on the fitted dose curve; in most records, active means well fitted activation curve with a large enough effect; inconclusive means small, poorly fitted or top-dose-only effect; inactive means no such curve, though single readings can be large or run the other way. Potencies of inconclusive entries are doubtful fits and often do not repeat.

test: A quantitative high throughput screen for small molecules that induce DNA re-replication in SW480 colon adenocarcinoma cells.; further: nearly all actives have a fitted effect of over 55% in size; on re-replication activation: % of control where 0% means no effect; conditions: Hoechst DNA content imaging, 48 h; re-replication activation: at 46.1 µM (top of the series) unless noted
Outline: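 Image-based DNA-content assay: after two days of treatment, nuclei were labelled with the DNA dye Hoechst and imaged, and hits were compounds raising the count of nuclei showing high fluorescence intensity.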
Potency means the concentration at half of the fitted maximal effect.

SMILES | re-replication activation | Potency
CNC(=O)CN(Cc1ccccc1)S(=O)(=O)c1ccccc1 | inactive: -2.92% | 
CC(C)(CO)NCc1cc(Br)ccc1OCc1ccccc1 |  | inconclusive: 2.59 µM [activator, partial curve, poor fit]
CCOC(=O)c1ccc(NC(=O)Cn2nnc(-c3ccccc3C)n2)cc1 |  | inconclusive: 31.6 µM [activator, partial curve, poor fit]
O=C1C=CN(C(=O)Oc2ccccc2)CC1 |  | inconclusive: 6.51 µM [activator, single point]
Cc1cccc2cc(C#N)c(N3CCC(O)CC3)nc12 |  | inconclusive: 18.4 µM [activator, single point]
Cc1cccc(NC(=S)NNc2cccc(Cl)c2)c1 |  | inconclusive: 23.1 µM [activator, single point]
Cc1ccc(NC(=O)COC(=O)C2(c3ccc(Cl)cc3)CCCC2)cc1 |  | inconclusive: 2.59 µM [activator, full curve, poor fit]
C[C@@]12C(=O)Nc3ccc(F)cc3C(=O)N1[C@H]1c3cc(Br)ccc3OC[C@@H]1[C@@H]2c1ccccc1 |  | inconclusive: 18.4 µM [activator, single point]
N#CCCn1cc(/C=N/O)c(-c2ccccc2)n1 | inactive: 0.578% | 
Cc1ccc(C(=O)CNc2ccc(C)cc2C)cc1 | inactive: 2.86% | 
Cc1ccc(NC(=O)c2cc(S(=O)(=O)N3CCOCC3)cn2C)cc1F | inactive: -4.39% | 
CCOc1ccc2nc(NC(=O)CN3CCN(CC)CC3)sc2c1 | inactive: 2.73% | 
COc1cc(NC(=S)NCCO)c(OC)cc1Cl |  | inconclusive: 6.51 µM [activator, partial curve, poor fit]
CCCCC(CC)CN=C(N)NC(N)=NCCCCCCN=C(N)NC(N)=NCC(CC)CCCC (stereo not drawn) |  | inconclusive: 11.9 µM [activator, single point]
CCCCC(=O)N/N=C/c1cc([N+](=O)[O-])ccc1N1CCOCC1 |  | inconclusive: 0.092 µM [activator, full curve, poor fit]
c1ccc(C2CC(c3cccs3)=NN2c2ccccc2)cc1 (stereo not drawn) |  | inconclusive: 0.651 µM [activator, partial curve, poor fit]
CS(=O)(=O)c1nc(S(=O)(=O)c2ccc(Cl)cc2)c(N2CCCCCC2)s1 | inactive: 2.58% | 
CS(=O)(=O)N(CC(=O)Nc1ccc(S(=O)(=O)N2CCOCC2)cc1)c1ccccc1Br | inactive: 1.93% | 
Cc1ccccc1C(=O)NNC(=O)C(=O)Nc1cccc(Cl)c1C |  | inconclusive: 29.1 µM [activator, single point]
COc1ccc(C(=O)Nc2nc3cc(OC)c(OC)cc3c(=O)[nH]2)cc1 |  | inconclusive: 20.6 µM [activator, single point]
COc1cc(N=c2c([N+](=O)[O-])nn(-c3ccc4c(c3)OCCO4)n2O)cc(OC)c1 |  | inconclusive: 16.4 µM [activator, single point]
O=C(Nc1ccc(Cc2ccncc2)cc1)C1CC1 | inactive: 9.49% | 

SMILES | re-replication activation | Potency
Nc1nc(NCCOCCO)nc(NC2CCCCC2)c1[N+](=O)[O-] |  | inconclusive: 29.1 µM [activator, single point]
C=C1C(=O)O[C@H]2C1CC[C@@](C)(O)C13C=CC(C)(C21)C1(C3)C(=O)O[C@@H]2C3C(C)=CCC3[C@](C)(O)C[C@H](OC(C)=O)C21 (stereo partly drawn) |  | inconclusive: 1.64 µM [activator, partial curve, poor fit]
CCC(c1nnnn1C1CCCC1)N(Cc1cccs1)Cc1cc2cccc(C)c2[nH]c1=O (stereo not drawn) |  | inconclusive: 18.4 µM [activator, partial curve, poor fit]
COc1ccc2ccccc2c1CNCc1ccc(C)cc1 |  | inconclusive: 20.6 µM [activator, single point]
Cc1onc(-c2ccccc2)c1-c1nc2cc(Cl)ccc2c(=O)o1 |  | inconclusive: 29.1 µM [activator, single point]
O=[N+]([O-])C(/C=C(/Cl)[N+](=O)[O-])=C(N1CCCCC1)N1CCCCC1 |  | active: 14.6 µM
c1ccc(-c2nnc(-c3ccccn3)nc2NC2CCCCC2)cc1 |  | inconclusive: 3.66 µM [activator, full curve]
Cc1ccc(C(C(=O)NC(C)(C)C)N(Cc2cccs2)C(=O)c2ccc3c(c2)OCCO3)cc1 (stereo not drawn) |  | inconclusive: 29.1 µM [activator, single point]
COc1cc(/C=N/OCC(=O)NC23CC4CC(CC(C4)C2)C3)ccc1OCc1ccccc1 |  | inconclusive: 16.4 µM [activator, single point]
COc1ccccc1C(=O)Nc1ccc(C(=O)/C=C/c2cccs2)cc1 |  | inconclusive: 29.1 µM [activator, single point]
Cc1ccc(NC(=O)C2CCCN(c3ncnc4c3nc3n4CCCCC3)C2)cc1Cl (stereo not drawn) |  | inconclusive: 1.84 µM [activator, partial curve, poor fit]
COc1ccc2nc(C)cc(Nc3ccc(C(=O)O)cc3)c2c1 |  | inconclusive: 6.51 µM [activator, single point]
N#Cc1c(NC(=O)c2ccc(Cn3cc(Br)cn3)o2)sc2c1CCCCC2 |  | inconclusive: 20.6 µM [activator, single point]
CCOC(=O)c1c(C=O)c2ccccc2n1CC | inactive: -36.8% | 
COc1cc(/C=C2\CC(C(C)(C)C)C/C(=C\c3cc(OC)c(OC)c(OC)c3)C2=O)cc(OC)c1OC (stereo not drawn) |  | active: 7.31 µM
COc1ccc(-c2oc(=O)c3cc(OC)c(OC)cc3c2C#CCCO)cc1 |  | inconclusive: 1.64 µM [activator, partial curve, poor fit]
COc1ccc(/C=N\NC(=O)COc2ccccc2Cl)cc1Cn1nc(C)cc1C | inactive: 5.89% | 
O=c1ccc(Oc2nc(N3CCOCC3)nc(N3CCOCC3)n2)n[nH]1 |  | inconclusive: 2.59 µM [activator, full curve, poor fit]
COc1cccc(N2CCN(c3ncnc4c3[nH]c3ccc(F)cc34)CC2C)c1 (stereo not drawn) |  | inconclusive: 20.6 µM [activator, single point]
Brc1ccc(/C=N/Nc2nc3ccccc3o2)cc1 | inactive: -7.73% | 
COc1ccc(OC)c(-c2csc(NC(=O)Cc3ccc(OC)c(OC)c3)n2)c1 | inactive: 5.85% | 

2 records drawn at random from the list so far, as already listed:
SMILES | re-replication activation | Potency
O=C(Nc1ccc(Cc2ccncc2)cc1)C1CC1 | inactive: 9.49% | 
c1ccc(-c2nnc(-c3ccccn3)nc2NC2CCCCC2)cc1 |  | inconclusive: 3.66 µM [activator, full curve]
